Reference: patent publication US20090088412A1, “COMPOSITION FOR TREATING CANCER CELLS AND PREPARATION METHOD THEREOF” (KAOHSIUNG MEDICAL UNIVERSITY, priority 2007, published 2009)
Some results were stated once for a whole list of compounds, not compound by compound. At least one compound was matched to its structure with a doubt left.

Tested on: 5 target cancer cell lines (MCF-7, MDA-MB-231, Hep G2, Hep 3B, A549)
Experiment: MTT cytotoxicity test, summary over 5 target cancer cell lines
Format: cell-based, human
Conditions: text summary of table 1, all 5 cancer cell lines

CC1=C(C)C(=O)O[C@@H]([C@@H](C)[C@@]23O[C@@H]2C[C@H]2[C@@H]4C[C@H]5O[C@]56[C@@H](O)C=CC(=O)[C@]6(C)[C@H]4CC[C@@]23C)C1 [Compound 8, Tubocapsanolide A]
IC50 in 5 target cancer cell lines: < 2 µg/mL

CC1=C(C)C(=O)O[C@@H]([C@](C)(O)[C@@]23O[C@@H]2C[C@H]2[C@@H]4C[C@H]5O[C@]56[C@@H](O)C=CC(=O)[C@]6(C)[C@H]4CC[C@@]23C)C1 [Compound 9, 20-Hydroxytubocapsanolide A]
IC50 in 5 target cancer cell lines: < 2 µg/mL

CC1=C(C)[C@H](O)[C@H]([C@@H](C)[C@@]23O[C@@H]2C[C@H]2[C@@H]4C[C@H]5O[C@]56[C@@H](O)C=CC(=O)[C@]6(C)[C@H]4CC[C@@]23C)OC1=O [Compound 10, 23-Hydroxytubocapsanolide A]
IC50 in 5 target cancer cell lines: < 2 µg/mL
